Assay results taken from patent US10292989B2, “General anesthetics that are not neurotoxic” (University of Virginia Patent Foundation, priority 2014, dated 2019).
Some of these results come from one statement about several compounds together.

Test system: rat pups (PND7)
Assay: Loss of righting reflex (LORR) in PND7 rat pups, i.p.
Conditions: highest doses

SMILES	duration of LORR
C[C@]12CC[C@H](O)C[C@H]1CC[C@@H]1[C@@H]2CC[C@]2(C)[C@@H](C#N)CC[C@@H]12 [3β-OH, (3β,5β,17β)-3-hydroxyandrostane-17-carbonitrile]	over 400 minutes
CNC1(c2ccccc2Cl)CCCCC1=O (centres unmarked) [ketamine, reference compound]	over 400 minutes
